Among all 350,000 compounds or so, about 180 (0.051%) were called active. The shares of active, inactive and inconclusive entries below differ from those in the screen.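 Rule for the calls: active = mean inhibition across replicates of 30% or more, whatever share of single replicates reach that level; inconclusive = mean inhibition below 30% while every single replicate reaches 30%; inactive = the rest.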
biological target: Protein disulfide-isomerase (Homo sapiens) (UniProt P07237); assay: blockers of PDI-driven insulin aggregation – biochemical, turbidity, single point, plate reader, primary screen (AID 588391); conditions: A650, 90 min, at 10 µM, hits give high values;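 note: absorbance from insulin aggregation driven by PDI reduction with DTT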

The chains behind the UniProt entries cited, without tags or fusion partners.
UniProt P07237, whole entry, looked up: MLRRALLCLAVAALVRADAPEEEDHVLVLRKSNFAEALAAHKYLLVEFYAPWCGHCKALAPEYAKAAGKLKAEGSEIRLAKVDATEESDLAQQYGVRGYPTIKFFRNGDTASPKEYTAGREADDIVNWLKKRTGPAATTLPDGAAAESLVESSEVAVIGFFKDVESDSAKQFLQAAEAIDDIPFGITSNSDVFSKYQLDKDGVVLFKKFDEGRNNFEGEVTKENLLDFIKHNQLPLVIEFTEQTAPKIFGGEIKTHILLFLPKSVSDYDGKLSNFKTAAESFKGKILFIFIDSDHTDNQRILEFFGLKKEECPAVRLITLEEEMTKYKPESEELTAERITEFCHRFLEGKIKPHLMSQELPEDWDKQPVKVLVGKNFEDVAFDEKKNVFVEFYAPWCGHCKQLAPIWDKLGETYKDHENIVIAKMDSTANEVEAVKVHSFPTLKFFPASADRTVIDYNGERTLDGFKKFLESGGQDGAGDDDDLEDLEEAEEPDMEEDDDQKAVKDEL

| Compound | inhibition |
| --- | --- |
| Cc1ccc(SCC(=O)c2sc(-c3ccccc3)nc2C)cc1 | inconclusive: 36% |
| O=C1NC(Cc2ccc(O)cc2)c2nc3cc(Cl)ccc3c(=O)n2-c2ncccc21 (configuration not stated) | inconclusive: 31.8% |
| CCCCn1c(=O)[nH]c(=O)c2c1nc(-c1ccc([N+](=O)[O-])cc1)n2CC | inactive: -10.9% |
| Cc1cc(C(=O)Cn2nnc3ccccc3c2=O)c(C)n1-c1ccccc1F | inconclusive: 32.5% |
| CCN(CC(=O)Nc1ccc2c(c1)OCCO2)C(=O)CC1CCCC1 | active: 32.9% |
| CC(=O)/C=C/c1ccc2ccccc2n1 | inconclusive: 44.8% |
| CCN1CCN(c2ncc(C(=O)Nc3cc(Cl)ccc3OC)c3ccccc23)CC1 | inactive: -0.436% |
| Nc1nnc(CC(=O)N/N=C/c2cccc([N+](=O)[O-])c2)s1 | inconclusive: 31.6% |
| CN1C(=O)C(O)(CC(=O)c2cccnc2)c2ccccc21 (configuration not stated) | inactive: 1.07% |
| Cc1ccc2c(=O)n3c(nc2c1)C(Cc1ccc(O)cc1)NC(=O)c1cccnc1-3 (configuration not stated) | inconclusive: 38.5% |
| COc1ccc(/C(C)=N/NC(=O)CNC(=O)c2cccs2)cc1 | inconclusive: 30.5% |
| CCCNC(=O)Cn1c(-c2ccc(F)cc2)cc(C(=O)OCC)c1C | inconclusive: 31.5% |
| Cc1c(N=Nc2ccc(O)cc2)c(=O)n(-c2ccccc2)n1C | inactive: 1.46% |
| O=C(NCCc1c[nH]c2ccccc12)/C(=C\c1cccnc1)NC(=O)c1ccccc1Br | inconclusive: 31.9% |
| CC(NC(=O)COC(=O)Cc1ccccc1[N+](=O)[O-])c1ccccc1 (configuration not stated) | inconclusive: 31.8% |
| O=C1C=CC(=O)N1Cc1ccccn1 | inactive: 0.166% |
| O=C(/C=C/c1ccc(Cl)c([N+](=O)[O-])c1)c1ccc(O)cc1 | inconclusive: 41.1% |
| Cc1ccc(C)c(OCc2nnc(N)s2)c1 | inactive: 24.6% |
| Cc1c(C(=O)N2CCOCC2)sc2ncn(CC(=O)N3CCC(C)CC3)c(=O)c12 | inconclusive: 35.2% |
| O=C(Cn1nnc2ccccc21)OCC(=O)c1ccccc1 | inconclusive: 39.3% |
| CC1(C)Cc2c(c(N3CCOCC3)nc3sc4c(NN)ncnc4c23)CS1 | inconclusive: 30% |

Of the compounds above, 2 contain fluorine.

| Compound | inhibition |
| --- | --- |
| Cc1cc(C(=O)Cn2nnc3ccccc3c2=O)c(C)n1-c1ccccc1F | inconclusive: 32.5% |
| CCCNC(=O)Cn1c(-c2ccc(F)cc2)cc(C(=O)OCC)c1C | inconclusive: 31.5% |

The list continues.

| Compound | inhibition |
| --- | --- |
| CCN(CC)C(=O)CSc1nnc([C@H](Cc2c[nH]c3ccccc23)NC(=O)OC(C)(C)C)o1 | active: 55.7% |
| CCOc1ccc2c(c1)nc(SCC(=O)c1ccc(Br)s1)n2C | inactive: -1.63% |
| O=C(Nc1oc2ccccc2c(=O)c1-c1ccc(Cl)cc1)c1ccco1 | inconclusive: 61.3% |
| CCOC(=O)CCCn1ncn2c(cc3occc32)c1=O | inactive: 5.23% |
| Cc1nc(-c2cnn(-c3ccccc3)c2)c2cc(C)oc2n1 | inconclusive: 37.4% |
| C=CCNc1ncnc2c1ncn2[C@H]1CN(Cc2cc(OC)c(OC)c(OC)c2)C[C@@H](CO)O1 | inactive: 4.48% |
| CCC(C(=O)Nc1nc(C)c(C(=O)OC)s1)c1ccccc1 (configuration not stated) | inactive: -8.54% |
| NC(Cc1ccc(C(F)(F)F)cc1)c1csc(Nc2ccc(C(=O)NCCCO)cn2)n1 (configuration not stated) | inconclusive: 99.6% |
| N=c1c2c(n(Cc3ccc(F)cc3)c3c1CCC3)CCCC2 | inactive: -1.91% |
| O=C1C(=Cc2ccccc2O)SC(=S)N1CCCN1CCOCC1 | inconclusive: 30.1% |
| COc1ccccc1NC(=O)c1cccc(N2C(=O)C3C4C=CC(C4)C3C2=O)c1 (configuration not stated) | inactive: -0.253% |
| CCOc1ccccc1CN1CCNC(=O)C1CC(=O)NCc1nccn1CC (configuration not stated) | inconclusive: 34.4% |
| Cc1nn(Cc2ccc(F)cc2)c(Cl)c1/C=N/NC(=O)c1cccnc1 | inconclusive: 33% |
| CCOC(=O)CN(c1ccccc1)S(=O)(=O)c1ccc(F)cc1 | inconclusive: 39.2% |
| Cc1ccc(N(Cc2ccccc2)C(=O)c2cccc(S(=O)(=O)N3CC(C)OC(C)C3)c2)cc1 (configuration not stated) | inconclusive: 30% |
| CCNc1nc(NCC)n2c(SCC(=O)N3CC4(C)CC3CC(C)(C)C4)nnc2n1 (configuration not stated) | inconclusive: 35.3% |
| CCOC(=O)C1(CCOc2ccccc2)CCN(Cc2cc(OC)c(O)cc2Cl)CC1 | inconclusive: 33.3% |
| Nc1[nH]n2c(=O)c3c(nc2c1N=Nc1ccccc1)CCCC3 | inconclusive: 42.9% |
| Cc1cc(N2CCCC2)ccc1/C=C1/C(=O)N(C)C(=S)N1C | inconclusive: 32.8% |
| Cc1cc(C)[n+]2n1C(=O)C(c1ccccc1)=C2[O-] | inconclusive: 30.6% |
| CCOc1c(Cl)cc(CNC(C)(C)CC(C)(C)C)cc1OC | active: 35.4% |

| Compound | inhibition |
| --- | --- |
| Cc1cc(C)c2c(=O)n3c(nc2c1)C(Cc1ccc(O)cc1)NC(=O)c1cccnc1-3 (configuration not stated) | active: 44.1% |
| C[C@H]1CN([C@@H](C)CO)C(=O)Cc2cc(NC(=O)Nc3ccccc3)ccc2O[C@H]1CN(C)Cc1ccccc1 | inconclusive: 31.4% |
| Cc1[nH]c2ccccc2c1/C=C/c1cc[n+](C)cc1 | inconclusive: 35% |
| O=C(OCC(=O)C12CC3CC(CC(C3)C1)C2)c1ccc(O)cc1O | inconclusive: 33.7% |
| COC(=O)c1nc2nc(C)cc(=O)n2[nH]1 | inconclusive: 34.9% |
| O=C(N/N=C/c1ccc(O)cc1)NC12CC3CC(CC(C3)C1)C2 | inconclusive: 47% |
| CCc1ccc(S(=O)(=O)Nc2cc3c(cc2C)n(C)c(=O)n3C)cc1 | inactive: 1.7% |
| C#CCOCCOCCOCCNc1nc(N2CCN(C(=O)[C@H]([C@@H](C)CC)n3cc([C@@H](N)Cc4ccc(O)cc4)nn3)CC2)nc(N2CCN(C(=O)[C@H](Cc3ccc(O)cc3)n3cc([C@@H](N)CC(C)C)nn3)CC2)n1 | inconclusive: 33.7% |
| CC12CCC(C(=O)Nc3ccccc3Cl)(C(Br)C1=O)C2(C)C (configuration not stated) | inconclusive: 30.7% |
| C[C@@H]1CN([C@H](C)CO)C(=O)c2cc(NC(=O)Cc3cn(C)c4ccccc34)ccc2O[C@H]1CN(C)S(=O)(=O)c1ccc(F)cc1 | inconclusive: 41.3% |
| CC(=O)Nc1ccc(NC(=O)CSc2nc(=O)n3cccc(C)c3n2)cc1 | active: 32.3% |
| COc1cc(CCC(=O)OCC(=O)Nc2cc(S(=O)(=O)N3CCOCC3)ccc2Cl)cc(OC)c1OC | inconclusive: 32.1% |
| Cn1cc(Cl)c(C(=O)OCC(=O)Nc2ccccc2)n1 | inconclusive: 38.6% |
| C=CCn1c(SCC(=O)Nc2ccc(N(C)C)cc2)nnc1-c1cccc(C)c1 | inconclusive: 34.3% |
| COc1ccc(OC)c2[nH]c(=O)c(CCNC(=O)C(=O)c3c(C)[nH]c4ccccc34)cc12 | inconclusive: 46% |
| CCc1cc(-c2n[nH]c(CCC(=O)O)c2-c2nc3ccccc3n2C)c(O)cc1O | inconclusive: 34.2% |
| FC(F)(F)c1cccc(NC(=S)NCc2ccccn2)c1 | inconclusive: 31.8% |
| CC(=O)C1=C(O)C(=O)N(CCc2c[nH]c3ccccc23)C1c1ccc(O)cc1 (configuration not stated) | active: 46.4% |
| COc1cccc(/C=N/NC(=O)CNC(=O)C(c2ccccc2)c2ccccc2)c1O | inconclusive: 48.3% |
| CCCCCCCCCCCCCCCCn1cc[n+](C)c1 | inconclusive: 33% |
| COc1ccc(CCNC(=O)C2(C)CCC(=O)N2Cc2ccc(F)cc2Cl)cc1OC (configuration not stated) | inactive: -6.86% |

| Compound | inhibition |
| --- | --- |
| COc1ccccc1C=NN=C(NN=Cc1ccccc1OC)NN=Cc1ccccc1OC | inconclusive: 35.1% |
| Nc1ccc(N2CCCCC2)c2nonc12 | inconclusive: 35.3% |
| COc1cccc(NC(=O)C2CCC(CNS(=O)(=O)c3cccs3)CC2)c1 (configuration not stated) | inactive: 4.97% |
| COc1ccc(C(=O)NNC(=O)CSc2nnc(-c3cccnc3)n2C)cc1 | inactive: 7.05% |
| Cc1ccc(-c2cc(C(=O)NNC(=O)c3csc(N4CCOCC4)n3)c3ccccc3n2)cc1 | inconclusive: 32.7% |
| C#CCOCCOCCOCCNc1nc(N2CCN(C(=O)[C@H](CCCCN)n3cc(CCCC)nn3)CC2)nc(N2CCN(C(=O)[C@H](Cc3ccc(O)cc3)n3cc(CCO)nn3)CC2)n1 | active: 129% |
| C=CCS(=O)(=O)c1nc2ccccc2s1 | inconclusive: 30% |
| Cc1c(O)ccc2c(CN3CCN(CCO)CC3)cc(=O)oc12 | active: 53.3% |
| CC(=O)Nc1cccc(NC(=O)CCc2ccccc2)c1 | inconclusive: 36.5% |
| N#Cc1ccc(C(=O)Nc2cc(C3CC3)nn2-c2ccccc2)cc1 | inactive: -1.85% |
| CC1(C)CC[C@]2(C(=O)O)CC[C@]3(C)C(=CC[C@@H]4[C@@]5(C)CC[C@H](O[C@@H]6O[C@H](C(=O)O)[C@@H](O)[C@H](O[C@@H]7OC[C@H](O)[C@H](O)[C@H]7O)[C@H]6O)C(C)(C)[C@@H]5CC[C@]43C)[C@@H]2C1 | active: 87.8% |
| O=C1N[C@@H](Cc2c[nH]c3ccccc23)COC(=O)[C@H](Cc2ccc(F)cc2)C/C=C\C[C@H]1CC(=O)N(CCO)Cc1ccccc1 | inconclusive: 32.9% |
| Cc1ccccc1NC(=O)Cn1nc(C)c2ccccc2c1=O | inactive: -0.98% |
| O=C(/C=C/c1cccnc1)c1ccc(O)cc1 | inconclusive: 45.1% |
| CCOC(=O)[C@@H]1[C@H]2COc3ccc(Br)cc3[C@@H]2N2C(=O)N(c3ccc(C(F)(F)F)cc3)C(=O)[C@@]12C | inactive: -1.17% |
| O=C(N[C@@H](Cc1ccccc1)C(=O)CCl)OCc1ccccc1 | inactive: 17.2% |
| CC[C@]12c3[nH]c4cc(-c5ccco5)ccc4c3CCN1C(=O)[C@@H](CC(=O)NCCCOC)C[C@@H]2C(=O)N1CCN(C(=O)C2CC2)CC1 | inconclusive: 32.7% |
| Cc1[nH]c2ccc(-c3n[nH]c(=S)n3C)cc2c1C | inactive: 3.24% |
| CC(NC(=O)c1ccc2c(c1)S(=O)(=O)N=C1CCCCCN12)c1ccc(S(N)(=O)=O)cc1 (configuration not stated) | inactive: 1.33% |

Some values from the results shown.
Entry of CC(=O)Nc1cccc(NC(=O)CCc2ccccc2)c1 under inhibition: inconclusive: 36.5%
Entry of CC[C@]12c3[nH]c4cc(-c5ccco5)ccc4c3CCN1C(=O)[C@@H](CC(=O)NCCCOC)C[C@@H]2C(=O)N1CCN(C(=O)C2CC2)CC1 under inhibition: inconclusive: 32.7%
Entry of Cc1ccccc1NC(=O)Cn1nc(C)c2ccccc2c1=O under inhibition: inactive: -0.98%
Entry of C=CCS(=O)(=O)c1nc2ccccc2s1 under inhibition: inconclusive: 30%
Entry of O=C(/C=C/c1cccnc1)c1ccc(O)cc1 under inhibition: inconclusive: 45.1%
